PubChem BioAssay AID1487 (National Center for Advancing Translational Sciences (NCATS), 2009)
The list shows a part of the results. Further columns of the screen follow, without active or inactive calls. Most of these compounds were active or inconclusive in the main read-out, so they are no random draw. Potencies come from curve fits of mixed quality, noted in brackets.

Assay: qHTS Assay for Modulators of Lamin A Splicing
Conditions: HeLa LMNA splicing GFP/RFP minigene ratio, 48 h
Method in brief: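 Read-out is the ratio of GFP to DsRed2 object intensity, acquired by 488 nm laser-scanning cytometry on HeLa lamin A-EGFP minigene reporter cells. Compound incubation 48 hrs at 37 °C in Opti-MEM with 2% FBS; DMSO 0.5% final.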

[1] = measured here: RFP viability control channel
[2] = measured here: GFP splicing reporter channel

SMILES	AC50 [1]	AC50 [2]
Cc1ccc(Cn2ccc(=O)c(OCc3c(Cl)cccc3Cl)c2C)cc1	14.1 µM [rising, single point]	–
C/C(=N\OCC(=O)N/N=C/c1ccc(C)cc1O)c1cccs1	35.5 µM [falling, single point]	35.5 µM [falling, single point]
COc1ccccc1CNc1nc(S(=O)(=O)c2ccccc2)c(Cl)s1	12.6 µM [rising, partial curve]	–
CC1(C)Cc2cccc(OCC(=O)Nc3cccnc3)c2O1	5.62 µM [rising, partial curve, poor fit]	1.41 µM [rising, partial curve, poor fit]
O=[N+]([O-])c1ccc(Sc2ccccc2Cl)nc1	11.2 µM [rising, single point]	–
O=C1C(O)=C(O)C(=O)C(O)=C1O	0.562 µM [falling, partial curve, poor fit]	0.631 µM [falling, partial curve, poor fit]
Cc1ccc(/C([O-])=C(/C(=S)NCc2ccccc2)[n+]2cccc(CO)c2)cc1[N+](=O)[O-]	–	0.0398 µM [falling, full curve, poor fit]
CCOC(=O)C(Oc1ccc2c(-c3ccccc3)cc(=O)oc2c1)c1ccccc1 (configuration not stated)	11.2 µM [rising, partial curve, poor fit]	–
CSCc1c(C(=O)NC2CCCc3ccccc32)oc2ccccc12 (configuration not stated)	12.6 µM [rising, partial curve, poor fit]	5.01 µM [rising, partial curve, poor fit]
CC(=O)N1CCc2cc(S(=O)(=O)NC3CCCc4ccccc43)ccc21 (configuration not stated)	8.91 µM [rising, partial curve]	5.62 µM [rising, full curve]
Nc1nc(SCc2c(Cl)cccc2Cl)n[nH]1	14.1 µM [rising, single point]	–
CCN(C(=O)CSc1nc2ccccc2nc1Cc1ccc(F)cc1)c1cccc(C)c1	28.2 µM [rising, single point]	14.1 µM [rising, partial curve, poor fit]
NS(=O)(=O)c1cnccc1Nc1ccc(Cl)cc1	15.8 µM [rising, single point]	12.6 µM [rising, single point]
CCSc1nc(N2CCOCC2)c2c(c1C#N)CCCC2	35.5 µM [rising, single point]	35.5 µM [rising, single point]
CNC(=O)c1cnc2sc(N3CCCCCC3)nn2c1=O	0.02 µM [falling, full curve, poor fit]	–
CC(C)c1ccccc1NC(=S)N1CCN(Cc2ccc3c(c2)OCO3)CC1	17.8 µM [rising, partial curve, poor fit]	–
On1onc2c3cc(-c4ccccc4)nc3ccc21	5.01 µM [falling, full curve]	7.08 µM [falling, partial curve]
Cn1c(/C=C/c2cccc([N+](=O)[O-])c2)nc2ccccc2c1=O	–	0.01 µM [falling, full curve, poor fit]
O=C(CCN1CCC(c2ccccc2)C1)c1ccccc1 (configuration not stated)	17.8 µM [falling, single point]	35.5 µM [falling, single point]
COc1ccccc1C(CCNS(=O)(=O)c1ccc(C)cc1)c1ccco1 (configuration not stated)	11.2 µM [rising, partial curve, poor fit]	–
Cc1ccc2cc(CN(C(=O)c3ccco3)c3ccccc3C)c(=O)[nH]c2c1	20 µM [rising, single point]	–
CCc1ccccc1NC1Nc2cc(C)nn2S1 (configuration not stated)	0.501 µM [falling, full curve]	–
Cc1nn(Cc2ccc(Cl)cc2)c(C)c1NC(=O)c1cc(-c2ccc3c(c2)OCO3)on1	10 µM [rising, partial curve]	10 µM [rising, partial curve, poor fit]
CCOc1ccccc1N(C)C(=O)c1c2c(nc3ccccc13)C(=O)N(C1CCCCC1)C2	31.6 µM [falling, partial curve, poor fit]	–
CCOC(=O)c1cc2sccc2n1CC(=O)N1CCc2ccccc21	5.62 µM [rising, partial curve, poor fit]	–
COc1ccccc1NC(=O)CN(c1ccc(C)cc1)S(=O)(=O)c1c(C)n[nH]c1C	0.398 µM [rising, full curve, poor fit]	–
CSc1ccccc1C(=O)NCc1ccc(F)cc1	0.00501 µM [falling, full curve, poor fit]	–

SMILES	AC50 [1]	AC50 [2]
c1ccc2c(Nc3nc(N4CCOCC4)c4ccccc4n3)cccc2c1	22.4 µM [rising, partial curve]	11.2 µM [rising, partial curve, poor fit]
COc1cc(/C=N/NC(=O)c2ccc(-c3ccccc3)cc2)cc(OC)c1OC	15.8 µM [rising, single point]	–
CCn1cc([N+](=O)[O-])c(C(=O)N2N=C(c3ccc4ccccc4c3)CC2c2ccccc2O)n1 (configuration not stated)	15.8 µM [rising, partial curve]	10 µM [rising, partial curve]
O=C(Nc1nc(-c2ccccc2)cs1)c1cccs1	–	10 µM [rising, single point]
COc1ccc(-c2noc(C)c2-c2ccc3ccccc3n2)c(O)c1	11.2 µM [rising, partial curve]	2.24 µM [rising, full curve]
CC(=O)Oc1c(C)cc(Cl)cc1C(=O)Nc1ccc([N+](=O)[O-])cc1Cl	0.251 µM [rising, full curve]	0.158 µM [rising, full curve, poor fit]
Cc1nn(-c2ccc(F)cc2)c2sc(C(=O)O)cc12	35.5 µM [rising, single point]	–
COc1ccccc1NC(=O)c1ccc(NS(=O)(=O)c2ccc(F)c(Cl)c2)cc1	35.5 µM [rising, single point]	–
Cc1ccc(N2C(=O)N(CC(=O)c3cc(C)ccc3C)C(=O)C2C)cc1 (configuration not stated)	6.31 µM [rising, partial curve]	–
CCOCCCNS(=O)(=O)c1ccc(NC(=O)c2ccccc2)cc1	11.2 µM [rising, partial curve]	0.2 µM [rising, partial curve]
CCOC(=O)N1CCN(CC(=O)Nc2ccc(Oc3ccccc3)cc2)CC1	17.8 µM [rising, single point]	–
CCOc1cc(C(=O)OCC(=O)NC(C)c2ccccc2)ccc1OCC(=O)N1CCOCC1 (configuration not stated)	0.00316 µM [rising, full curve, poor fit]	–
C=CCc1ccc(OCC(O)CN2CCN(Cc3ccc(Cl)cc3)CC2)c(OC)c1 (configuration not stated)	35.5 µM [rising, single point]	11.2 µM [rising, partial curve]
COC(=O)[C@@H]1CC[C@H](C)[C@@H](c2ccc(C)cc2)N1C(=O)c1ccc(/C=N/O[C@@H](C)c2cn([C@H](CO)Cc3ccccc3)nn2)cc1	35.5 µM [rising, single point]	2.51 µM [falling, partial curve]
COc1ccccc1C(=O)Nc1nnn(C)n1	–	5.62 µM [falling, single point]
Cc1cc(C)n(-c2nc(SCCN(C)C)c3c4c(sc3n2)CCCC4)n1	–	35.5 µM [falling, single point]
O=C(CCCOc1ccc(Cl)cc1Cl)NCCCn1ccnc1	31.6 µM [rising, single point]	–
COc1ccc(Cl)cc1NC(=S)NCc1ccc(S(N)(=O)=O)cc1	0.631 µM [rising, full curve, poor fit]	–
CO/N=C/c1ccc(N2CCCC2)c([N+](=O)[O-])c1	0.0224 µM [falling, full curve, poor fit]	–
CCCNC(=O)CN1CCN(c2ccc(NC(=O)c3ccc(OC)cc3)cc2C(=O)O)CC1	0.0891 µM [falling, full curve, poor fit]	0.0398 µM [falling, full curve, poor fit]
Cc1onc(-c2c(F)cccc2Cl)c1C(=O)NCCc1ccc(S(N)(=O)=O)cc1	–	0.891 µM [rising, full curve, poor fit]
O=C(CSCc1ccc(Cl)cc1)N/N=C/c1ccco1	35.5 µM [rising, partial curve, poor fit]	25.1 µM [rising, partial curve, poor fit]
O=S(=O)(c1ccc(NC(=S)NCCc2ccccc2)cc1)N1CCOCC1	0.501 µM [rising, partial curve]	0.794 µM [rising, partial curve, poor fit]
COc1ccc(/C=N/NC(=O)CN(Cc2ccccc2)S(=O)(=O)c2ccc3c(c2)OCCO3)cc1	31.6 µM [rising, single point]	–
CC(C)CNC(=O)COC(=O)c1c2c(nc3ccccc13)/C(=C/c1cccs1)CC2	2.51 µM [rising, partial curve]	–
COC(=O)CC1c2ccccc2C=C(/C=C/c2ccc3c(c2)OCO3)N1C(=O)OC (configuration not stated)	0.00251 µM [rising, full curve, poor fit]	0.00355 µM [rising, full curve, poor fit]
O=C(CCc1nnc(CCCCc2ccccc2)o1)NCCN1CCOC1=O	35.5 µM [falling, single point]	35.5 µM [falling, single point]

3 of the compounds above, with each value named:
O=C(Nc1nc(-c2ccccc2)cs1)c1cccs1
  AC50 [2]: 10 µM [rising, single point]
CCOc1cc(C(=O)OCC(=O)NC(C)c2ccccc2)ccc1OCC(=O)N1CCOCC1 (configuration not stated)
  AC50 [1]: 0.00316 µM [rising, full curve, poor fit]
Cc1onc(-c2c(F)cccc2Cl)c1C(=O)NCCc1ccc(S(N)(=O)=O)cc1
  AC50 [2]: 0.891 µM [rising, full curve, poor fit]
